## Screening data, single-dose tests

By UniProt entry, the sequences of proteins in these tests, tags left out.
UniProt P9WPC5, whole entry: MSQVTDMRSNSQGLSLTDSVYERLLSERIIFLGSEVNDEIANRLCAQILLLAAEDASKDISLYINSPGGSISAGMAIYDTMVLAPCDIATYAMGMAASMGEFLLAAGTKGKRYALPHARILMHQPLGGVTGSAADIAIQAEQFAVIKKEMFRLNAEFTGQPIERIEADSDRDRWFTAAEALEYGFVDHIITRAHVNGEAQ
UniProt P9WPC3, whole entry partner: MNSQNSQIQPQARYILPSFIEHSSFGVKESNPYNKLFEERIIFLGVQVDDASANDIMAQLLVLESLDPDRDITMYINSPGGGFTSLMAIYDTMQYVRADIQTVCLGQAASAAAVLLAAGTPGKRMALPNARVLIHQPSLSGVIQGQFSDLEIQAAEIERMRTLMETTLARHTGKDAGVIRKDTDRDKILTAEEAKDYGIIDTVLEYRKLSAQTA
UniProt P9WNZ1, whole entry: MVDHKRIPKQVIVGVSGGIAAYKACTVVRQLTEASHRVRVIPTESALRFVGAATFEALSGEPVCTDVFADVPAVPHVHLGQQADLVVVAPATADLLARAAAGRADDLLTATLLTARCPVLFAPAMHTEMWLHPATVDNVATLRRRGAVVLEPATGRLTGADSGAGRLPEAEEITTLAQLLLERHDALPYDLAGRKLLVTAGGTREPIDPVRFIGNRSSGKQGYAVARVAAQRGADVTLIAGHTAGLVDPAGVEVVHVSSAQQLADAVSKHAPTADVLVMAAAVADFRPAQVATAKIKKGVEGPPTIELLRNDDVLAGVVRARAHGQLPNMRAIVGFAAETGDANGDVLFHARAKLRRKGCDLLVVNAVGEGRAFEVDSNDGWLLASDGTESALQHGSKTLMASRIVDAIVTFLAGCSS

ClpP1P2: 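ClpP1P2, Mycobacterium tuberculosis (UniProt P9WPC5 and UniProt P9WPC3). Protease assay of ClpP1P2, read by the AMC dye that it sets free. Concentration: 50 µM. Higher reads as stronger inhibition, judged from the few compounds that gave an IC50. Most other retested compounds had strongly negative values. Of about 69,000 compounds tested this way, about 10 (0.015%) reached 50% or more in at least one test.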
CoaBC: 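Coenzyme A biosynthesis protein CoaBC, Mycobacterium tuberculosis (UniProt P9WNZ1). Enzyme assay of CoaBC with a phosphate dye (Biomol Green) read at 650 nm. Compounds at 30 µM. Direction is inferred from only a few compounds that gave an IC50; most scored high, so higher reads as stronger inhibition. Most strong results did not repeat in a second test. Of about 67,000 compounds tested this way, about 40 (0.06%) reached 50% or more in at least one test.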

Results are given as percent effect.
The record does not define 0% and 100%; most values in the screen are far below 50% and negative numbers occur (in some assays of this library far below -100).
This is an unselected part of the compounds tested.
Two or more numbers in one place are separate tests of the same structure; such repeats can differ widely.

SMILES,ClpP1P2,CoaBC
Cc1cn2nc(N3CCCCC3Cn3cccn3)sc2n1 (stereo not shown),0.4864,-12.6
CC(C)N1CCC(N2CCCC(C(=O)NCC3(O)CCCCC3)C2)CC1 (stereo not shown),-5.324,-1.029
COc1ccc2cc(CNc3c(C)nn(C(C)C)c3C)ccc2c1,-12.55,9.457
Cc1csc(CNC(=O)NCC(O)c2ccc(F)c(F)c2)n1 (stereo not shown),-2.124,2.244
Cc1cc(N2CCCCC2)c(C#N)c(C)n1,5.187,-0.3891
O=C(CC1CCCC1)N1CCC(c2nnc(-c3ccccn3)o2)CC1,9.541,0.2466
Cc1ccc(C(=O)N(Cc2ccccc2F)C2CC2)c(=O)[nH]1,-5.103,19.09
CC(=O)OC1CN(c2nc3c(C)cccc3s2)C1,-14.92,8.27
CCc1nccn1-c1cccc(C2CCCN2)n1 (stereo not shown),-104.9,-3.313
CS(=O)(=O)NCC1CCCN(C(=O)c2ccc3c(c2)CCCC3)C1 (stereo not shown),-1.709,-1.222
Nc1nc2c(c(NC(Cn3cccn3)c3ccccc3)n1)CCNCC2 (stereo not shown),-5.526,2.658
O=C(CN1CCOC(Cn2cccn2)C1)NC(C1CC1)C1CC1 (stereo not shown),-11.45,-0.9926
CCNC(=O)N1CCN(C(=O)c2cc(Cl)cc3cccnc23)CC1,5.119,2.85
NCc1cn(CC2CCCN(C(=O)NCc3ccc(Cl)cc3)C2)nn1 (stereo not shown),-27.55,2.927
Cc1nn(CCC#N)c(C)c1CCC(=O)N(C)Cc1ccsc1,4.318,13.85
NC(=O)CN(C(=O)c1c[nH]c2ncccc12)C1CCCC1,-5.508,6.865
Cc1csc(N2CCN(Cc3ccccn3)CC2C)n1 (stereo not shown),1.475,-0.2132
CN1CCC(c2cccc(C(=O)N(C)C)n2)CC1,-3.775,7.732 and 29.69
O=C(c1cccnc1)N1CCO[C@@H]2CNC[C@@H]21,-17.71,2.97
CN1CCN(c2cc(CCNC(=O)C3CCC3)nc(C3CC3)n2)CC1,7.65,-1.667
CCN1CCC2(CC1)CC(CC(=O)N(C)C)c1ccc(F)cc12 (stereo not shown),22.35,-2.599
CC(C)(C)C(=O)N1CCC(c2nc(O)cc(-c3ccccn3)n2)CC1,13.2,-3.611
Cc1ccc(OCC(=O)N2CCOCC(O)(CN3CCCC3)C2)cc1C (stereo not shown),6.341,1.635
c1ccc(Cn2cc3c(n2)C(COCC2CC2)OCC3)nc1 (stereo not shown),10.55,1.141
COCCC(=O)N1CCCC1c1nc(O)cc(-c2ccccn2)n1 (stereo not shown),-5.755,2.663
COc1ccnc(N(C)Cc2ccccc2OC(F)(F)F)n1,-3.415,-7.265
COCC1c2c(cnn2CC2CC2)CCN1Cc1ccc(OC)cc1 (stereo not shown),-9.644,2.665
COc1ccc(C(C)NC(=O)NCCCn2cncn2)cc1F (stereo not shown),2.502,5.867
CC(C)(C)NC(=O)CN1CCCN(Cc2cc(C#N)ccc2F)CC1,-3.673,-5.857
CCN(Cc1ccc(Cl)s1)S(=O)(=O)CC,0.2769,6.855
CCn1ncc(CN2CCC(O)(Cn3ccc4ncccc43)CC2)c1C,3.711,3.676
CCOC(=O)COC1CCN(C(C)=O)CC(=O)N(C)c2ccccc21 (stereo not shown),2.05,2.421
CCOCCN1C[C@@H]2CCCO[C@@H]2[C@H](NC(=O)c2cnoc2C)C1,-4.214,0.4938
Cc1nn(C)c(N2CCCN(C)CC2)c1CNC(=O)CC(C)(C)C,-8.591,0.9346
CCc1nccn1C1CCCN(C(=O)c2ccn(C)c(=O)c2)C1 (stereo not shown),-1.347,1.518
Cc1ccc(CN2CCc3c(C(=O)N(C)C)nn(C)c3C2)s1,4.96,-0.6452
CC(C(=O)NCCCN1CCN(c2ccccc2)CC1)n1cncn1 (stereo not shown),-12.58,-0.1304
c1ccc(C(CC2CN(Cc3c[nH]cn3)CCO2)c2ccccc2)cc1 (stereo not shown),-7.137,6.914
COc1ccc(C2CCCN2C(=O)Nc2ccc(OC)nc2)cc1 (stereo not shown),-3.29,7.127
Cc1nn(C)c(N(C)C)c1CNC1CCOc2c(F)cccc21 (stereo not shown),13.24,-1.596
Cc1ccc(-c2ncc(C(=O)NCCNc3ncccn3)s2)c(C)c1,6.277,3.915
c1nc(C2CCCCO2)ncc1CN1CCOCC1 (stereo not shown),-1.39,13.52
OC1(CN2CCCC2)COCCN(c2cc(C(F)(F)F)ccn2)C1 (stereo not shown),-9.609,3.21
Cn1ccnc1CN1CCC2(CC(=O)N(c3cncnc3)C2)C1 (stereo not shown),4.956,8.74
CCN1Cc2cc(F)ccc2N(C(C)=O)CCC1=O,16.45,-0.7264
O=C(c1cn(CC(=O)N2CCCC2)c2ccccc12)C1CC1,-17.91,8.855
O=C(c1ccccc1F)N1C[C@@H]2COC[C@]2(COCc2cccnc2)C1,-1.872,-4

3 of the entries, repeated:

{"smiles": "Cc1ccc(CN2CCc3c(C(=O)N(C)C)nn(C)c3C2)s1", "ClpP1P2": 4.96, "CoaBC": -0.6452}
{"smiles": "Cc1nn(C)c(N2CCCN(C)CC2)c1CNC(=O)CC(C)(C)C", "ClpP1P2": -8.591, "CoaBC": 0.9346}
{"smiles": "Nc1nc2c(c(NC(Cn3cccn3)c3ccccc3)n1)CCNCC2", "stereo": "stereo not shown", "ClpP1P2": -5.526, "CoaBC": 2.658}

Measurements from “University of Dundee, Small-Polar-MMV Screening Library” (2021), ChEMBL document CHEMBL3988442.